Test results reported in the supplement of paper PMC8728848.
This is one part of the list.

Experiments:
Experiment in all cases: glycan array binding signal (z-score within array); higher = stronger binding
Details in all cases: glycan notation: IUPAC condensed, linker removed
[1] = biological target: GlcA(b1-3)Gal
In short: (§1)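 Columns mapping to the same glycan were averaged after glycan names were converted to IUPAC-condensed notation. The data come from 3228 arrays in the Consortium for Functional Glycomics database, limited to those with an available protein sequence. Binding is reported as a within-array Z-score averaged across arrays of one protein sequence and across linkers.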

[2] = biological target: GlcA(b1-3)GlcNAc
In short: as §1

[3] = biological target: GlcA(b1-6)Gal
In short: as §1

[4] = biological target: GlcNAc(a1-3)Gal(b1-4)GlcNAc
In short: as §1

[5] = biological target: GlcNAc(a1-4)Gal(b1-3)GlcNAc
In short: as §1

[6] = biological target: GlcNAc(a1-4)Gal(b1-4)GalNAc
In short: as §1

[7] = biological target: GlcNAc(a1-4)Gal(b1-4)GlcNAc
In short: as §1

[8] = biological target: GlcNAc(a1-4)Gal(b1-4)GlcNAc(b1-3)Gal(b1-4)Glc
In short: as §1

[9] = biological target: GlcNAc(a1-4)Gal(b1-4)GlcNAc(b1-3)Gal(b1-4)GlcNAc
In short: as §1

[10] = biological target: GlcNAc(a1-4)Gal(b1-4)GlcNAc(b1-3)Gal(b1-4)GlcNAc(b1-3)Gal(b1-4)GlcNAc
In short: as §1

[11] = biological target: GlcNAc(a1-4)Gal(b1-4)GlcNAc(b1-3)Gal(b1-4)[Fuc(a1-3)]GlcNAc(b1-3)Gal(b1-4)[Fuc(a1-3)]GlcNAc
In short: as §1

[12] = biological target: GlcNAc(a1-6)Gal(b1-4)GlcNAc
In short: as §1

[13] = biological target: GlcNAc(b1-2)Gal(b1-3)GalNAc
In short: as §1

[14] = biological target: GlcNAc(b1-2)Man(a1-3)[GlcNAc(b1-2)Man(a1-6)]Man(b1-4)GlcNAc(b1-4)GlcNAc
In short: as §1

[15] = biological target: GlcNAc(b1-2)Man(a1-3)[GlcNAc(b1-2)Man(a1-6)]Man(b1-4)GlcNAc(b1-4)[Fuc(a1-6)]GlcNAc
In short: as §1

[16] = biological target: GlcNAc(b1-2)Man(a1-3)[GlcNAc(b1-4)][GlcNAc(b1-2)Man(a1-6)]Man(b1-4)GlcNAc(b1-4)GlcNAc
In short: as §1

[17] = biological target: GlcNAc(b1-2)[GlcNAc(b1-4)]Man(a1-3)[GlcNAc(b1-2)Man(a1-6)]Man(b1-4)GlcNAc(b1-4)GlcNAc
In short: as §1

[18] = biological target: GlcNAc(b1-2)[GlcNAc(b1-4)]Man(a1-3)[GlcNAc(b1-4)][GlcNAc(b1-2)Man(a1-6)]Man(b1-4)GlcNAc(b1-4)GlcNAc
In short: as §1

[19] = biological target: GlcNAc(b1-2)[GlcNAc(b1-4)]Man(a1-3)[GlcNAc(b1-4)][GlcNAc(b1-2)[GlcNAc(b1-6)]Man(a1-6)]Man(b1-4)GlcNAc(b1-4)GlcNAc
In short: as §1

[20] = biological target: GlcNAc(b1-2)[GlcNAc(b1-6)]Man(a1-6)[GlcNAc(b1-2)Man(a1-3)]Man(b1-4)GlcNAc(b1-4)GlcNAc
In short: as §1

[21] = biological target: GlcNAc(b1-2)[GlcNAc(b1-6)]Man(a1-6)[GlcNAc(b1-2)Man(a1-3)][GlcNAc(b1-4)]Man(b1-4)GlcNAc(b1-4)GlcNAc
In short: as §1

[22] = biological target: GlcNAc(b1-3)Gal
In short: as §1

[23] = biological target: GlcNAc(b1-3)Gal(b1-3)GalNAc
In short: as §1

[24] = biological target: GlcNAc(b1-3)Gal(b1-4)Glc
In short: as §1

[25] = biological target: GlcNAc(b1-3)Gal(b1-4)GlcNAc
In short: as §1

[26] = biological target: GlcNAc(b1-3)Gal(b1-4)GlcNAc(b1-3)Gal(b1-4)GlcNAc
In short: as §1

[27] = biological target: GlcNAc(b1-3)GalNAc
In short: as §1

[28] = biological target: GlcNAc(b1-3)Man
In short: as §1

[29] = biological target: GlcNAc(b1-3)[GlcNAc(b1-4)][GlcNAc(b1-6)]GlcNAc
In short: as §1

[30] = biological target: GlcNAc(b1-3)[GlcNAc(b1-6)]Gal(b1-4)GlcNAc
In short: as §1

[31] = biological target: GlcNAc(b1-3)[GlcNAc(b1-6)]GalNAc
In short: as §1

[32] = biological target: GlcNAc(b1-4)Gal(b1-4)GlcNAc
In short: as §1

[33] = biological target: GlcNAc(b1-4)GlcNAc
In short: as §1

[34] = biological target: GlcNAc(b1-4)GlcNAc(b1-4)GlcNAc
In short: as §1

[35] = biological target: GlcNAc(b1-4)GlcNAc(b1-4)GlcNAc(b1-4)GlcNAc(b1-4)GlcNAc
In short: as §1

[36] = biological target: GlcNAc(b1-4)GlcNAc(b1-4)GlcNAc(b1-4)GlcNAc(b1-4)GlcNAc(b1-4)GlcNAc
In short: as §1

[37] = biological target: GlcNAc(b1-4)[GlcNAc(b1-6)]GalNAc
In short: as §1

[38] = biological target: GlcNAc(b1-6)Gal(b1-4)GlcNAc
In short: as §1

B1: MFG-E8 (Homo sapiens), Q08431 (protein)
chain: MPRPRLLAALCGALLCAPSLLVALDICSKNPCHNGGLCEEISQEVRGDVFPSYTCTCLKGYAGNHCETKCVEPLGLENGNIANSQIAASSVRVTFLGLQHWVPELARLNRAGMVNAWTPSSNDDNPWIQVNLLRRMWVTGVVTQGASRLASHEYLKAFKVAYSLNGHEFDFIHDVNKKHKEFVGNWNKNAVHVNLFETPVEAQYVRLYPTSCHTACTLRFELLGCELNGCANPLGLKNNSIPDKQITASSSYKTWGLHLFSWNPSYARLDKQGNFNAWVAGSYGNDQWLQVDLGSSKEVTGIITQGARNFGSVQFVASYKVAYSNDSANWTEYQDPRTGSSKIFPGNWDNHSHKKNLFETPILARYVRILPVAWHNRIALRLELLGC
glycan array binding signal (z-score) [1]: -0.402 | glycan array binding signal (z-score) [2]: 0.43 | glycan array binding signal (z-score) [3]: 0.102 | glycan array binding signal (z-score) [4]: -0.366 | glycan array binding signal (z-score) [5]: -0.689 | glycan array binding signal (z-score) [6]: 0.62 | glycan array binding signal (z-score) [7]: -0.633 | glycan array binding signal (z-score) [8]: -0.781 | glycan array binding signal (z-score) [9]: 3.21 | glycan array binding signal (z-score) [10]: -0.078 | glycan array binding signal (z-score) [11]: -0.064 | glycan array binding signal (z-score) [12]: -0.786 | glycan array binding signal (z-score) [13]: -0.68 | glycan array binding signal (z-score) [14]: 0.22 | glycan array binding signal (z-score) [15]: 0.498 | glycan array binding signal (z-score) [16]: -0.345 | glycan array binding signal (z-score) [17]: 0.442 | glycan array binding signal (z-score) [18]: 1.76 | glycan array binding signal (z-score) [19]: 1.57 | glycan array binding signal (z-score) [20]: 2.13 | glycan array binding signal (z-score) [21]: -0.144 | glycan array binding signal (z-score) [22]: -0.329 | glycan array binding signal (z-score) [23]: 0.268 | glycan array binding signal (z-score) [24]: -0.526 | glycan array binding signal (z-score) [25]: -0.62 | glycan array binding signal (z-score) [26]: -0.66 | glycan array binding signal (z-score) [27]: -0.488 | glycan array binding signal (z-score) [28]: 0.419 | glycan array binding signal (z-score) [29]: -0.183 | glycan array binding signal (z-score) [30]: -0.553 | glycan array binding signal (z-score) [31]: 0.166 | glycan array binding signal (z-score) [32]: 0.313 | glycan array binding signal (z-score) [33]: 0.206 | glycan array binding signal (z-score) [34]: -0.556 | glycan array binding signal (z-score) [35]: -0.126 | glycan array binding signal (z-score) [36]: -0.589 | glycan array binding signal (z-score) [37]: -0.585 | glycan array binding signal (z-score) [38]: -0.77
